Measurements from PubChem BioAssay AID504467 (National Center for Advancing Translational Sciences (NCATS), 2011).
Hit rate of the full screen: of about 330,000 compounds, about 7,700 (2.3%) were called active. This list was built around the results that the source calls inconclusive (neither active nor inactive); the mix of calls is not that of the screen. Calls follow the shape of the dose curve; as a rule, active = well fitted inhibition curve with a large enough effect; inconclusive = small, poorly fitted or top-dose-only effect, or effect the other way; inactive = flat fitted curve, though single readings scatter. A potency beside an inconclusive call is a rough fit, not a confirmed value.

assay: qHTS screen for small molecules that inhibit ELG1-dependent DNA repair in human embryonic kidney (HEK293T) cells expressing luciferase-tagged ELG1; conditions: HEK293T ELG1-luciferase reporter, luminescence, 16 h, DNA damage induced by 5-fluorouridine; series mostly up to 46.1 µM; also: nearly all actives have a fitted effect of over 55% in size
How it was run: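 Reporter activity after DNA damage by 5-fluorouridine is monitored. Compound-treated cells incubate 16 hr at 37 °C, then ONE-Glo is added for 30 min before luminescence reading.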
Potency is read from the fitted curve at half-maximal effect.

Row | Compound | Potency
1 | CSc1ccccc1NC(=O)c1ccc(Cl)s1 | inconclusive: 2.31 µM [activator, full curve, poor fit]
2 | CCc1ccn2cc(-c3ccc4c(c3)OCO4)nc2c1 | inconclusive: 0.146 µM [activator, partial curve]
3 | CCSc1nc(=S)cc(C)[nH]1 | inactive
4 | Cc1c(C(=O)N2CCOCC2)sc(NC(=O)CCl)c1C#N | inconclusive: 20.6 µM [inhibitor, single point]
5 | CC(=O)c1cccc(NC(=O)Nc2ccc(C)cc2)c1 | inconclusive: 16.4 µM [activator, partial curve]
6 | CCOC(=O)CCn1nc(-c2ccc(Cl)cc2)cc1N | inconclusive: 18.4 µM [activator, partial curve]
7 | COc1cccc(CNC(=O)c2ccc(CS(=O)Cc3ccc(C)cc3)o2)c1 (stereo not given) | inconclusive: 9.2 µM [inhibitor, partial curve, poor fit]
8 | COc1ccc(OC)c(NC(=O)CSc2nnc(-c3cccnc3)s2)c1 | inconclusive: 29.1 µM [inhibitor, single point]
9 | CCCCN(C)CCN1C(=O)C2C(C(=O)Nc3ccc(C)cc3)C3C=CC2(O3)C1C(=O)NC1CCCCC1 (stereo not given) | inactive
10 | COc1ccccc1N1CCN(C(=O)c2onc(C)c2Cl)CC1 | inactive
11 | COc1ccc2c(COC(=O)c3n[nH]c4ccccc34)cc(=O)oc2c1 | inconclusive: 2.59 µM [activator, partial curve]
12 | Cn1c(=O)c(=O)n(C)c2cc(S(=O)(=O)CCC(=O)Nc3c(F)c(F)c(F)c(F)c3F)ccc21 | inconclusive: 18.3 µM [activator, single point]
13 | COc1cccc(Nc2nc(N)nc(C(F)(F)F)n2)c1 | inconclusive: 20.6 µM [activator, partial curve]
14 | Cc1nnc(NC(=O)c2ccc(F)c(S(=O)(=O)N3CCOCC3)c2)s1 | inconclusive: 10.3 µM [activator, partial curve, poor fit]
15 | COc1ccc(-c2c(C#N)c(SCc3c(C)noc3C)nc3c2C(=O)CC(C)(C)C3)cc1 | inactive
16 | CC(=O)N(Cc1cccs1)Cc1cc2cc(C)c(C)cc2nc1Cl | inconclusive: 29.1 µM [inhibitor, single point]
17 | Cc1cc(C)n(-c2nc3nonc3nc2-n2nc(C)cc2C)n1 | inactive
18 | O=C(CN1CCN(c2ccc([N+](=O)[O-])cc2)CC1)Nc1ccccn1 | inconclusive: 11.6 µM [inhibitor, partial curve, poor fit]
19 | CC(=O)c1cccc(NC(=S)NC(=O)c2ccc(Cl)cc2)c1 | inconclusive: 18.4 µM [activator, partial curve]
20 | CCn1cnc2c1c(=O)n(Cc1csc(-c3ccccc3)n1)c(=O)n2Cc1ccccc1 | inconclusive: 12.6 µM [inhibitor, partial curve, poor fit]
21 | Cn1c(=O)c(=O)n(C)c2cc(N3CCCC3)c(NS(=O)(=O)c3ccc(Cl)cc3)cc21 | inactive
22 | CCC(c1ccccc1)c1nnc(NC(=O)c2ccco2)s1 (stereo not given) | inconclusive: 3.26 µM [activator, partial curve, poor fit]
23 | O=C(NC(=S)NCCN1CCOCC1)c1ccccc1 | inconclusive: 29.1 µM [activator, single point]

Row | Compound | Potency
24 | Cc1cccc(-c2nc(Nc3cccc(O)c3)c3ccccc3n2)c1 | inconclusive: 23.1 µM [inhibitor, single point]
25 | Cc1ccc2c(CN3C(=O)NC(C)(c4ccc5c(c4)OCO5)C3=O)cc(=O)oc2c1 (stereo not given) | inconclusive: 18.4 µM [inhibitor, single point]
26 | O=C(Nc1ccc(Oc2cccc(C(F)(F)F)c2)nc1)c1cccs1 | inconclusive: 29.1 µM [inhibitor, single point]
27 | Cc1cccc(NC(=O)CN2CCN(C(=O)c3ccc(OCc4cn5ccccc5n4)cc3)CC2)c1C | inconclusive: 2.59 µM [inhibitor, partial curve, poor fit]
28 | CCOc1ccc(N(CC(=O)Nc2ccc(F)c(F)c2)S(=O)(=O)c2c(C)noc2C)cc1 | inactive
29 | COc1cccc(CNc2nc3nc(C)c(Cl)c(C)n3n2)c1 | inconclusive: 20.6 µM [activator, partial curve]
30 | COc1ccccc1N=c1sc2ccccc2n1C | inactive
31 | COC(=O)c1c(NC(=O)CSc2nnc(-c3ccco3)n2C)sc(C)c1C | inconclusive: 29.1 µM [inhibitor, single point]
32 | CCn1cc(S(=O)(=O)NCCc2ccccc2OC)cn1 | inactive
33 | COc1ccc(NC(=O)CSc2nc3ccccc3c3nc4ccccc4n23)cc1 | inconclusive: 2.59 µM [inhibitor, full curve]
34 | O=C(c1ccc(S(=O)(=O)N2CCCCCC2)cc1)N1CCN(c2ccccc2)CC1 | inconclusive: 25.9 µM [inhibitor, partial curve, poor fit]
35 | COc1ccc(Cl)cc1NC(=S)NCCSc1ccc(C)cc1 | inactive
36 | Cc1ccc(NC(=O)CSc2n[nH]c(-c3ccncc3)n2)cc1 | inactive
37 | CC1(C)Cc2nc3sc4c(=O)[nH]cnc4c3cc2CS1 | inconclusive: 11.6 µM [activator, partial curve]
38 | CC(C)(C)OC(=O)N1CCC[C@H]1C(=O)O | inconclusive: 3.66 µM [activator, single point]
39 | COc1cc2ccccc2cc1C(=O)NNC(=O)c1ccccc1O | active: 25.9 µM
40 | CC(C)OP(=O)(OC(C)C)/C(C=O)=N\Nc1ccc([N+](=O)[O-])cc1 | active: 23.1 µM
41 | Clc1ccc(-c2c[n+](Cc3ccc(Cl)c(Cl)c3)c3n2CCC3)cc1 | inactive
42 | Cc1c(Cl)cccc1NC(=O)Nc1ccccc1C(N)=O | inactive
43 | CCOc1ccc(C(=O)NCCCCNC(=O)c2ccc(OCC)cc2)cc1 | inconclusive: 5.8 µM [activator, full curve]
44 | CC(=O)Nc1ccc2nc3ccccc3nc2c1 | inconclusive: 10.3 µM [activator, partial curve]
45 | Cc1ccc(C(C)C)c(OCC(=O)Nc2ccc3c(c2)nc(CN2CCCC2)n3C)c1 | active: 13 µM

Some of these compounds in order of SMILES length, falling:
Row | Compound | Potency
27 | Cc1cccc(NC(=O)CN2CCN(C(=O)c3ccc(OCc4cn5ccccc5n4)cc3)CC2)c1C | inconclusive: 2.59 µM [inhibitor, partial curve, poor fit]
41 | Clc1ccc(-c2c[n+](Cc3ccc(Cl)c(Cl)c3)c3n2CCC3)cc1 | inactive
31 | COC(=O)c1c(NC(=O)CSc2nnc(-c3ccco3)n2C)sc(C)c1C | inconclusive: 29.1 µM [inhibitor, single point]
33 | COc1ccc(NC(=O)CSc2nc3ccccc3c3nc4ccccc4n23)cc1 | inconclusive: 2.59 µM [inhibitor, full curve]
43 | CCOc1ccc(C(=O)NCCCCNC(=O)c2ccc(OCC)cc2)cc1 | inconclusive: 5.8 µM [activator, full curve]
36 | Cc1ccc(NC(=O)CSc2n[nH]c(-c3ccncc3)n2)cc1 | inactive
37 | CC1(C)Cc2nc3sc4c(=O)[nH]cnc4c3cc2CS1 | inconclusive: 11.6 µM [activator, partial curve]
35 | COc1ccc(Cl)cc1NC(=S)NCCSc1ccc(C)cc1 | inactive
32 | CCn1cc(S(=O)(=O)NCCc2ccccc2OC)cn1 | inactive
44 | CC(=O)Nc1ccc2nc3ccccc3nc2c1 | inconclusive: 10.3 µM [activator, partial curve]
30 | COc1ccccc1N=c1sc2ccccc2n1C | inactive
